Measured values: US12589087B2, “Enantiomer selective action on neurotransmission” (The Board of Trustees of the Leland Stanford Junior …, priority 2021, dated 2026)
Some results were stated once for a whole list of compounds, not compound by compound. Some compounds share one range, which may span the group rather than tell each member.

Test system: mouse cerebral synaptosomes
Experiment: Potassium-induced neurotransmitter release assay
Assay type: cell-based
Description: To each tube, 2.5 μL of a test compound solution (final concentration 100 μM) in Buffer KRP or Buffer KRP alone were added. Samples were incubated for 15 min at 37° C., briefly chilled on ice, and then immediately centrifuged and washed twice with Buffer KRP. The resulting pellets were then resuspended in either Buffer KRP (500 μL) or Buffer K-KRP (500 μL). Samples were immediately centrifuged or incubated for 5, 10 or 15 min at 37° C., then centrifuged and washed with Buffer KRP. Resulting pellets were resuspended in 400 μL of 60% ACN containing 2.5 μM Glu-d5 and 2.5 μM Gln-d5 as internal standards.
Synaptosome uptake and high potassium-induced release assays were performed as described in Example 1. Uptake assays used 250 μL aliquots of the synaptosome suspension transferred to a pre-chilled 0.8 mL 96 well plate. 5 μL of a test compound solution (0.5 mM; final concentration: 10 μM to compare directly to our previous work was added to each well and incubated at 0° C. or 37° C. After 10, 20 or 30 min, samples were chilled on ice and immediately sedimented (2,500 g for 15 min at 4° C.) and washed with Buffer S (0.5 mL, ×2). Resulting pellets were resuspended in 200 μL of 60% ACN containing 5 μM GABA-d6 and stored at −80° C. until analysis. Potassium-induced release assay used 500 μL aliquots of the synaptosome suspension transferred to pre-chilled microcentrifuge tubes. 2.5 μL of a test compound solution (20 mM; final concentration: 100 μM) in Buffer KRP was added to each tube and incubated for 15 min at 37° C., briefly chilled on ice, and then immediately sedimented (8,000 g for 4 min at 4° C.) and washed with Buffer KRP, followed by centrifugation, twice. The resulting pellets were resuspended in 500 μL of Buffer KRP or Buffer K-KRP and incubated for 5, 10 or 15 min at 37° C., sedimented (8,000 g for 4 min at 4° C.), and washed with Buffer KRP. Resulting pellets were resuspended in 400 μL of 60% ACN containing 2.5 μM GABA-d6 as internal standard and stored at −80° C. until analysis.

Structure (SMILES) | released by high concentration of potassium ion
CC(N)CCC(=O)O (racemic) [rac-4APA, (rac)-4-Aminopentanoic acid] | 50% to 60
C[C@@H](N)CCC(=O)O [(R)-4APA, (R)-4-aminopentanoic acid] | 50% to 60
C[C@H](N)CCC(=O)O [(S)-4APA, (S)-4-aminopentanoic acid] | 50% to 60
